In PubChem BioAssay AID248 (DTP/NCI, 2004):
The list is a part of this screen's results and no random one: its compounds were picked by chemical class. Other doses and runs of a compound may be missing. T/C: endpoint of the treated group in % of that of the vehicle group. For survival time, this PubChem deposit counts one and a half times the control or more as active, and values a quarter to a half above the control carry no call in these data; other NCI protocols may use other cut-offs. Some T/C values are marked as having no survivor count here; that says nothing about deaths at the dose. Schedules are NCI's codes, taken here to give the interval after Q, in days (D) or hours (H), and the number of doses after X. Some entries hold several experiments; their values stand side by side, smallest first. Some schedules carry Z or #; the key to these is not given.

Test system: L1210 leukemia ip in BDF1 mice, survival T/C
Test: NCI In Vivo Anticancer Drug Screen. Data for tumor model L1210 Leukemia (intraperitoneal) in B6D2F1 (BDF1) mice
Details: T/C endpoint: mean survival time, vehicle: saline, higher T/C = longer survival
[1] = dose: 1.25 mg/kg/injection, schedule: Q01DX Z (ip)
[2] = dose: 2.5 mg/kg/injection, schedule: Q01DX Z (ip)
[3] = dose: 5.0 mg/kg/injection, schedule: Q01DX Z (ip)

O[C@@H](CNCCCl)[C@@H](O)CNCCCl
T/C (dose: 0.25 mg/kg/injection, schedule: Q01DX009 (ip)): 111 % of control [survivor count not shown]
T/C (dose: 0.25 mg/kg/injection, schedule: Q01DX Z (ip)): 114 % of control [survivor count not shown]
T/C (dose: 0.3 mg/kg/injection, schedule: Q01DX009 (ip)): 114 % of control [survivor count not shown]
T/C (dose: 0.5 mg/kg/injection, schedule: Q01DX009 (ip)): 151 % of control [survivor count not shown]
T/C (dose: 0.5 mg/kg/injection, schedule: Q01DX Z (ip)): 104 % of control [survivor count not shown]
T/C (dose: 0.6 mg/kg/injection, schedule: Q01DX009 (ip)): 109 % of control [survivor count not shown]
T/C (dose: 1.0 mg/kg/injection, schedule: Q01DX001 (ip)): 110 % of control [survivor count not shown]
T/C (dose: 1.0 mg/kg/injection, schedule: Q01DX009 (ip)): 119 [survivor count not shown] and 170 % of control [survivor count not shown]
T/C (dose: 1.0 mg/kg/injection, schedule: Q01DX Z (ip)): 132 % of control [survivor count not shown]
T/C (dose: 1.25 mg/kg/injection, schedule: Q01DX009 (ip)): 123 % of control [survivor count not shown]
T/C (dose: 1.25 mg/kg/injection, schedule: Q01DX009 (oral)): 123 % of control [survivor count not shown]
T/C [1]: 129 % of control [survivor count not shown]
T/C (dose: 2.0 mg/kg/injection, schedule: Q01DX009 (ip)): 131 [survivor count not shown] and 239 % of control [survivor count not shown]
T/C (dose: 2.0 mg/kg/injection, schedule: Q01DX Z (ip)): 126 [survivor count not shown] and 130 % of control [survivor count not shown]
T/C (dose: 2.5 mg/kg/injection, schedule: Q01DX001 (ip)): 105 % of control [survivor count not shown]
T/C (dose: 2.5 mg/kg/injection, schedule: Q01DX001 (oral)): 105 % of control [survivor count not shown]
T/C (dose: 2.5 mg/kg/injection, schedule: Q01DX009 (ip)): 132 % of control [survivor count not shown]
T/C (dose: 2.5 mg/kg/injection, schedule: Q01DX009 (oral)): 124 % of control [survivor count not shown]
T/C [2]: 150 % of control [survivor count not shown]
T/C (dose: 4.0 mg/kg/injection, schedule: Q01DX009 (ip)): 134 [survivor count not shown] and 148 % of control [survivor count not shown]
T/C (dose: 4.0 mg/kg/injection, schedule: Q01DX015 (ip)): 133 % of control [survivor count not shown]
T/C (dose: 4.0 mg/kg/injection, schedule: Q01DX Z (ip)): 145 % of control [survivor count not shown]
T/C (dose: 5.0 mg/kg/injection, schedule: Q01DX001 (ip)): 121 [survivor count not shown], 126 [survivor count not shown], 127 % of control [survivor count not shown]
T/C (dose: 5.0 mg/kg/injection, schedule: Q01DX001 (oral)): 102 [survivor count not shown] and 110 % of control [survivor count not shown]
T/C (dose: 5.0 mg/kg/injection, schedule: Q01DX009 (ip)): 156 % of control [survivor count not shown]
T/C (dose: 5.0 mg/kg/injection, schedule: Q01DX009 (oral)): 134 [survivor count not shown] and 140 % of control [survivor count not shown]
T/C [3]: 195 % of control [survivor count not shown]
T/C (dose: 8.0 mg/kg/injection, schedule: Q01DX009 (ip)): 160 % of control [survivor count not shown]
T/C (dose: 8.0 mg/kg/injection, schedule: Q01DX015 (ip)): 176 % of control [survivor count not shown]
T/C (dose: 8.0 mg/kg/injection, schedule: Q01DX Z (ip)): 167 [survivor count not shown] and 168 % of control [survivor count not shown]
T/C (dose: 10.0 mg/kg/injection, schedule: Q01DX001 (ip)): 116 [survivor count not shown], 129 [survivor count not shown], 131 % of control [survivor count not shown]
T/C (dose: 10.0 mg/kg/injection, schedule: Q01DX001 (oral)): 107 [survivor count not shown] and 135 % of control [survivor count not shown]
T/C (dose: 10.0 mg/kg/injection, schedule: Q01DX009 (ip)): 174 % of control [survivor count not shown]
T/C (dose: 10.0 mg/kg/injection, schedule: Q01DX009 (oral)): 142 [survivor count not shown] and 148 % of control [survivor count not shown]
T/C (dose: 10.0 mg/kg/injection, schedule: Q01DX Z (ip)): 164 % of control [survivor count not shown]
T/C (dose: 16.0 mg/kg/injection, schedule: Q01DX009 (ip)): 214 % of control [survivor count not shown]
T/C (dose: 16.0 mg/kg/injection, schedule: Q01DX015 (ip)): 126 [survivor count not shown] and 190 % of control [survivor count not shown]
T/C (dose: 16.0 mg/kg/injection, schedule: Q01DX Z (ip)): 209 % of control [survivor count not shown]
T/C (dose: 20.0 mg/kg/injection, schedule: Q01DX001 (ip)): 131 [survivor count not shown], 140 [survivor count not shown], 157 % of control [survivor count not shown]
T/C (dose: 20.0 mg/kg/injection, schedule: Q01DX001 (oral)): 95 [survivor count not shown] and 113 % of control [survivor count not shown]
T/C (dose: 20.0 mg/kg/injection, schedule: Q01DX009 (ip)): 184 % of control [survivor count not shown]
T/C (dose: 20.0 mg/kg/injection, schedule: Q01DX009 (oral)): 120 [survivor count not shown] and 134 % of control [survivor count not shown]
T/C (dose: 32.0 mg/kg/injection, schedule: Q01DX015 (ip)): 186 % of control [survivor count not shown]
T/C (dose: 32.0 mg/kg/injection, schedule: Q01DX Z (ip)): 130 [survivor count not shown] and 205 % of control [survivor count not shown]
T/C (dose: 40.0 mg/kg/injection, schedule: Q01DX001 (ip)): 144 [survivor count not shown], 148 [survivor count not shown], 201 % of control [survivor count not shown]
T/C (dose: 40.0 mg/kg/injection, schedule: Q01DX001 (oral)): 132 [survivor count not shown] and 137 % of control [survivor count not shown]
T/C (dose: 40.0 mg/kg/injection, schedule: Q01DX009 (ip)): 134 % of control [survivor count not shown]
T/C (dose: 40.0 mg/kg/injection, schedule: Q01DX009 (oral)): 89 [survivor count not shown] and 145 % of control [survivor count not shown]
T/C (dose: 54.0 mg/kg/injection, schedule: Q01DX015 (ip)): 116 % of control [survivor count not shown]
T/C (dose: 75.0 mg/kg/injection, schedule: Q01DX001 (ip)): 140 % of control [survivor count not shown]
T/C (dose: 80.0 mg/kg/injection, schedule: Q01DX001 (ip)): 163 % of control [survivor count not shown]
T/C (dose: 80.0 mg/kg/injection, schedule: Q01DX001 (oral)): 128 [survivor count not shown] and 140 % of control [survivor count not shown]
T/C (dose: 300.0 mg/kg/injection, schedule: Q01DX001 (ip)): 142 % of control [survivor count not shown]

O=P(Cl)(Cl)N(CCF)CCF
T/C [1]: 93 % of control [survivor count not shown]
T/C [2]: 101 % of control [survivor count not shown]
T/C [3]: 115 % of control [survivor count not shown]

O=C(c1ccccc1)N(CCCl)CCCl
T/C (dose: 100.0 mg/kg/injection, schedule: Q01DX009 (ip)): 104 % of control [survivor count not shown]
T/C (dose: 200.0 mg/kg/injection, schedule: Q01DX009 (ip)): 112 % of control [survivor count not shown]
